Reference: PubChem BioAssay AID1259405 (NCATS, 2018)

Assay: 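Knock-downs that lift recombinant protein yield in hamster ovary cells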 (primary screen)
Cells: Chinese hamster CHO-K1 ovary cells with stable secreted eGFP expression
Reagents: single siRNA against mouse genes, 0.8 pmol siRNA per well (2 µl of 400 nM stock)
Duration: 3 days
Measured: 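Percent of the per-plate non-targeting control median for intracellular GFP per well by laser scanning cytometry and for cell viability by ATP luminescence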
Reading the numbers: GFP, % of control: higher = more GFP per well, higher productivity; viability (ATP), % of control: higher = more viable cells (more ATP)
Hit rule: 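Called active when intracellular GFP, relative to negative control, is at or above 120%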
In all, the deposit lists about 50,000 reagents; shown is a random part of them. About 4,000 of all reagents (8%) were called active. 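Mouse siRNA library applied to hamster cells; one well for each siRNA.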 Entries without a mark were called inactive. Reagents against one gene are numbered here.

| gene | reagent no. | GFP, % of control | viability (ATP), % of control |
| --- | --- | --- | --- |
| Wdr44 (WD repeat domain 44) | 1 | 54 | 59.7 |
| Wdr44 (WD repeat domain 44) | 2 | 70.2 | 66.1 |
| Wdr44 (WD repeat domain 44) | 3 | 74.3 | 77 |
| Ffar2 (free fatty acid receptor 2) | 1 | 151 (active) | 88.8 |
| Ffar2 (free fatty acid receptor 2) | 2 | 42 | 53.3 |
| Ffar2 (free fatty acid receptor 2) | 3 | 80.2 | 72.1 |
| Ttpal (tocopherol (alpha) transfer protein-like) | 1 | 84.9 | 62 |
| Ttpal (tocopherol (alpha) transfer protein-like) | 2 | 46.9 | 75.8 |
| Ttpal (tocopherol (alpha) transfer protein-like) | 3 | 99.3 | 113 |
| Ifrd1 (interferon-related developmental regulator 1) | 1 | 89.4 | 94.5 |
| Ifrd1 (interferon-related developmental regulator 1) | 2 | 36.5 | 52.5 |
| Ifrd1 (interferon-related developmental regulator 1) | 3 | 89 | 73.2 |
| Nxt1 (NTF2-related export protein 1) | 1 | 47.2 | 27.6 |
| Nxt1 (NTF2-related export protein 1) | 2 | 52.2 | 79.5 |
| Nxt1 (NTF2-related export protein 1) | 3 | 38.9 | 48 |
| Rprd2 (regulation of nuclear pre-mRNA domain containing 2) | 1 | 120 (active) | 98.4 |
| Rprd2 (regulation of nuclear pre-mRNA domain containing 2) | 2 | 20 | 21.3 |
| Rprd2 (regulation of nuclear pre-mRNA domain containing 2) | 3 | 68.6 | 85.7 |
| Mettl28 (methyltransferase like 28) | 1 | 51.6 | 27 |
| Mettl28 (methyltransferase like 28) | 2 | 61.8 | 54 |
| Mettl28 (methyltransferase like 28) | 3 | 80 | 83.8 |
| A930024E05Rik (RIKEN cDNA A930024E05 gene) | 1 | 53 | 48.2 |
| A930024E05Rik (RIKEN cDNA A930024E05 gene) | 2 | 170 (active) | 84.6 |
| A930024E05Rik (RIKEN cDNA A930024E05 gene) | 3 | 70.7 | 75 |
| Slc38a1 | 1 | 88.6 | 58.1 |
| Slc38a1 | 2 | 51.2 | 62.1 |
| Slc38a1 | 3 | 91.8 | 78.6 |
| Psmd4 (proteasome (prosome, macropain) 26S subunit, non-ATPase, 4) | 1 | 25.7 | 15.3 |
| Psmd4 (proteasome (prosome, macropain) 26S subunit, non-ATPase, 4) | 2 | 95.6 | 36.7 |
| Psmd4 (proteasome (prosome, macropain) 26S subunit, non-ATPase, 4) | 3 | 64.1 | 64.5 |
| Oas1e (2'-5' oligoadenylate synthetase 1E) | 1 | 85.2 | 72.5 |
| Oas1e (2'-5' oligoadenylate synthetase 1E) | 2 | 53.9 | 44.3 |
| Oas1e (2'-5' oligoadenylate synthetase 1E) | 3 | 48.9 | 43.4 |
| Sgms1 (sphingomyelin synthase 1) | 1 | 79.6 | 93.4 |
| Sgms1 (sphingomyelin synthase 1) | 2 | 30.8 | 37.6 |

Quoted from the entries so far, 3 entries:
| gene | reagent no. | GFP, % of control | viability (ATP), % of control |
| --- | --- | --- | --- |
| Ifrd1 (interferon-related developmental regulator 1) | 1 | 89.4 | 94.5 |
| Ifrd1 (interferon-related developmental regulator 1) | 2 | 36.5 | 52.5 |
| Ifrd1 (interferon-related developmental regulator 1) | 3 | 89 | 73.2 |
